Source: US20260207602A1, “EGFR INHIBITORS” (Blueprint Medicines Corporation, priority 2022, published 2026)

Chains of the proteins cited; added tags and fusions are not shown. Lines headed by an entry give the natural chain unless they say otherwise; changes in a name come on top. Residues count along the entry.
UniProt P00533, 25-1210 L858R limits assumed: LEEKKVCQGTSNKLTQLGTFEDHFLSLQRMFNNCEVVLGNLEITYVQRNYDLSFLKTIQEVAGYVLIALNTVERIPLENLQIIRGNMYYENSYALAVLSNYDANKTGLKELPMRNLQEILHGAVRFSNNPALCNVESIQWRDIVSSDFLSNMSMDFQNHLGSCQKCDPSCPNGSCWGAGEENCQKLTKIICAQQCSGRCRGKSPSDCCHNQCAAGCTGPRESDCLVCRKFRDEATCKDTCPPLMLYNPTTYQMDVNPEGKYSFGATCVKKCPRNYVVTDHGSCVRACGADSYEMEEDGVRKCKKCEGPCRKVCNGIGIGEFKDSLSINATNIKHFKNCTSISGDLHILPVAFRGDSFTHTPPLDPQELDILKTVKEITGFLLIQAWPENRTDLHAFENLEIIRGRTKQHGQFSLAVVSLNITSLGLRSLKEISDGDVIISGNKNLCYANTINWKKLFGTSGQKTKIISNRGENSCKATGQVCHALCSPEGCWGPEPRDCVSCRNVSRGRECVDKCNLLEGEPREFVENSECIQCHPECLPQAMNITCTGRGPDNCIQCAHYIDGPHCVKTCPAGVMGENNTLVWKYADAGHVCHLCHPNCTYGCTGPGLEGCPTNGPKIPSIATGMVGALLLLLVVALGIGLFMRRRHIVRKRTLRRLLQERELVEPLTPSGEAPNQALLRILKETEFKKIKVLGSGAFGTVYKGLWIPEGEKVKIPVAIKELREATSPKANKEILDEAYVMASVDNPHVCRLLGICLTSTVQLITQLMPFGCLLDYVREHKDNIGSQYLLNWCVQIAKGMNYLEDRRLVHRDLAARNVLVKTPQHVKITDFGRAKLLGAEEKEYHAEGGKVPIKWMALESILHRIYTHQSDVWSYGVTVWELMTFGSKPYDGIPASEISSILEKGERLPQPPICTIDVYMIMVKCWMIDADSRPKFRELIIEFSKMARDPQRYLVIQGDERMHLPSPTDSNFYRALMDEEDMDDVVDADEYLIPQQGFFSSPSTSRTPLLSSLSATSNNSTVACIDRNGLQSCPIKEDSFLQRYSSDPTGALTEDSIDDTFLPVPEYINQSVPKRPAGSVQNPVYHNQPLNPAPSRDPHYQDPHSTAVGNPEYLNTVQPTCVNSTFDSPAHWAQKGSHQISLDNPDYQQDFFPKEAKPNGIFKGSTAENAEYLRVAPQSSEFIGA

Assays:
EGFR L858R = EGFR L858R (Homo sapiens, UniProt P00533, L858R); experiment: Biochemical EGFR inhibition assay (Caliper mobility shift), EGFR L858R; conditions: read-out: Enz EGFR L858R IC50, EGFR L858R enzyme
[1] = molecular target: intracellular phosphorylation of EGFR (Tyr1068) in PC-9 cells (Homo sapiens, UniProt P00533, DEL746-750); experiment: PC-9 pEGFR AlphaLISA assay; conditions: read-out: Phos EGFR PC9 IC50, 4 hours incubation
EGFR (d746-750) = EGFR (d746-750) (Homo sapiens, UniProt P00533, DEL746-750); experiment: Biochemical EGFR inhibition assay (Caliper mobility shift), EGFR (d746-750); conditions: read-out: Enz EGFR Exon 19-del IC50, EGFR Exon 19-del enzyme

Measured: IC50

CC(Oc1cc(-c2cnn(C)c2)cc2ncnc(Nc3ccc4ncsc4c3F)c12)C1COC1 (single isomer, unassigned)
< 10 nM: all assays above

The structures given here were assigned with low confidence; some may be wrong.
